Data published in article PMC2215330.
Results are given in words; binding and its absence hold for the method and conditions named. Binding seen in cells or lysates may run through a third protein. Some results given as binding are weak or reduced against the parent protein; the word gives no strength.

Chains of the proteins cited; added tags and fusions are not shown.
UniProt F5HCV3: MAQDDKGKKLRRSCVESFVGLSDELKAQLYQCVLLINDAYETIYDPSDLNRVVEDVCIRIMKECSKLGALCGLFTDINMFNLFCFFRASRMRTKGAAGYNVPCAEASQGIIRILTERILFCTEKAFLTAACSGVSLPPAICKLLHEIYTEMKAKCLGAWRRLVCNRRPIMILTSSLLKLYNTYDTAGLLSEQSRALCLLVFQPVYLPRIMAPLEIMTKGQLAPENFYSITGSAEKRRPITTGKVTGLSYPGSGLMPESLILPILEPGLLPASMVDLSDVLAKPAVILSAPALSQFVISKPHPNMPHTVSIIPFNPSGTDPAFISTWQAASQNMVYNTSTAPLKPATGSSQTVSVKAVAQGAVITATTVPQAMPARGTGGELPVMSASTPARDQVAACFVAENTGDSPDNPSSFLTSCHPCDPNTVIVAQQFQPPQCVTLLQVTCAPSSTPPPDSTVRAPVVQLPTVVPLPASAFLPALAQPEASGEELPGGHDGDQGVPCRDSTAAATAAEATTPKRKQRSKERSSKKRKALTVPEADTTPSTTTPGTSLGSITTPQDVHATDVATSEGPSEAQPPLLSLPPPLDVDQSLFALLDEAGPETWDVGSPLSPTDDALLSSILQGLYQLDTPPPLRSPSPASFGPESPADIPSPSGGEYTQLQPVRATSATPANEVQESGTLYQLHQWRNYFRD

Legend:
Test in all cases: co-IP
[1] = target: FLAG-EBV-Z-DL (EBV-Z with deletion of the leucine zipper region) (Epstein-Barr virus) (UniProt P03206)
[2] = target: KSHV replication and transcription activator (K-RTA), endogenous in induced BC1 cells (Kaposi's sarcoma-associated herpesvirus (endogenous in BC1)) (UniProt F5HCV3)
[3] = target: EBV BZLF1 gene product (EBV-Z), endogenous in induced BC1 cells (Epstein-Barr virus (endogenous in BC1)) (UniProt P03206)

## K-RTA (wild type, from expression plasmid) (from UniProt F5HCV3 1-691)
[1]
  binding: no binding

## EBV BZLF1 gene product (EBV-Z), endogenous in induced BC1 cells (from UniProt P03206 1-245)
[2]
  binding: binds

## KSHV replication and transcription activator (K-RTA), endogenous in induced BC1 cells (from UniProt F5HCV3 1-691)
[3]
  binding: binds
